From PMC11490049
No constants are given. Whether binding was seen depends on the method and setting. For some assays here: In cells and extracts the contact can be indirect. Some binding calls cover weakened binding; strength is not graded here. For some assays here: Where a sequence is shown, tags or fusion partners need not be part of it. One block for each molecule: values may come before it.

Protein sequences, listed by entry. Tags and fused reporters are not part of them.
UniProt Q60899: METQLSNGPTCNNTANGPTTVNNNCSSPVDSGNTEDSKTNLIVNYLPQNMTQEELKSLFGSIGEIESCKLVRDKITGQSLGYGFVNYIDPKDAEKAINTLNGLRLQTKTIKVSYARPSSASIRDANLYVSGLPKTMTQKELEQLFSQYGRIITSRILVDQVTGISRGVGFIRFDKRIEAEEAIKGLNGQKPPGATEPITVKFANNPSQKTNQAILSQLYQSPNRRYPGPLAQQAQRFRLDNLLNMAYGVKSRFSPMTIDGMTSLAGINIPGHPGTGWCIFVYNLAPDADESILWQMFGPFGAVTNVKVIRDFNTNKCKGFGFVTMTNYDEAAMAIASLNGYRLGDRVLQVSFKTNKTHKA

What was measured:
[1] = biological target: T1, His tagged MANF protein (His-MANF) (UniProt Q9CXI5); experiment: pull-down; in vitro binding assay: His-MANF recombinant protein mixed with glutathione beads conjugated with GST-ELAVL2 or its fragments in 500 ul NP40 buffer, 4 °C overnight, western blotting; the legend says MANF antibody pull-down; both purified
T1 sequence: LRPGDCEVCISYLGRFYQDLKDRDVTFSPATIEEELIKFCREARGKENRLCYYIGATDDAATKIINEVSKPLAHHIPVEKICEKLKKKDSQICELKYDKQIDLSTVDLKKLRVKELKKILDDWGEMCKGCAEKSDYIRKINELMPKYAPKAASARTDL

[2] = biological target: ELAV like RNA-binding protein 2 (ELAVL2), endogenous (mouse (endogenous in WT mouse brain)) (UniProt Q60899); experiment: co-IP; WT mouse brain lysate in NP-40 buffer (50 mM NaCl, 50 mM Tris-HCl pH8.0, 0.1% Triton X-100, 0.5% NP-40), 300 ug protein, ELAVL2 antibody overnight, protein A-agarose, western blotting; rabbit IgG as negative control

binding [1]: binds
Molecule: GST-tagged full-length ELAVL2 protein (GST-ELAVL2) (from UniProt Q60899 1-360)

binding [2]: binds
B1: Mesencephalic astrocyte-derived neurotrophic factor (MANF), endogenous (protein, UniProt Q9CXI5 22-179)
chain: T1 sequence
